Measurements reported in PubChem BioAssay AID1487 (National Center for Advancing Translational Sciences (NCATS), 2009).
Where “and” joins values, the source holds several entries; their conditions need not be identical. Identical values can stand only once. In all, about 200,000 compounds went through this assay and about 25 (0.01%) were called active. This list was built around the results that the source calls inconclusive (neither active nor inactive); the mix of calls is not that of the screen. Calls come from the whole dose curve; as a rule, active = well fitted inhibition curve with a large enough effect in the signal ratio, with a control signal flat (not every such curve was filed as active); inconclusive = small, poorly fitted or top-dose-only effect, or effect the other way, or a change in a side signal; inactive = flat fitted curve, though single readings scatter; the % refers to the signal ratio. Potencies beside an inconclusive call are fits to weak or partial responses and may not hold up.

Assay: qHTS Assay for Modulators of Lamin A Splicing
Conditions: HeLa LMNA splicing GFP/RFP minigene ratio, 48 h
How it was run: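 S3 HeLa cells stably expressing lamin A-EGFP splicing minigene plus DsRed2, 600 cells/well, 48 h compound exposure at 37C. Laser-scanning cytometry; analysed as GFP (500-530 nm)/RFP (575-640 nm) total intensity ratio; 0.5% DMSO vehicle.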

[1] = ratio change, negative = inhibition: at 46.1 µM (top of the series) unless noted
% is set by controls: 0 for no effect and ±100 for the full control effect; potency is the fitted concentration of half-maximal effect.

Cc1cc(/C=N/NC(=O)CC#N)c(C)n1-c1ccc([N+](=O)[O-])cc1
ratio change, negative = inhibition [1]: inconclusive: -4.49% [at 46 µM]

COCCNC(=O)c1cc(OC)c(OC)cc1[N+](=O)[O-]
ratio change, negative = inhibition [1]: inconclusive: 13.5% [at 46 µM]

Clc1ccccc1OCCn1ccnc1
ratio change, negative = inhibition [1]: inactive

CCc1ccccc1NC(=O)c1sc(-n2nc(C)c(Cc3ccccc3)c2C)nc1C
ratio change, negative = inhibition [1]: inconclusive: 41.3% [at 46 µM]

COc1ccc(CNC(=O)C2CCN(S(=O)(=O)c3ccc4c(c3)CCCN4C(C)=O)CC2)cc1
ratio change, negative = inhibition [1]: inactive

O=C(O)Cc1cn(-c2ccccc2)nc1-c1ccccc1
ratio change, negative = inhibition [1]: inactive

CCc1[nH]c(=S)c(C#N)c2c1CCCC2
ratio change, negative = inhibition [1]: inactive

CCOC(=O)c1c(S(=O)(=O)NCC(=O)NCc2ccccc2Cl)c(C)n(C)c1C
Potency [1]: inconclusive: 0.447 µM [activator, single point]

C=CCn1c(Cc2ccc(OC)cc2)nnc1SCc1nc2ccccc2c(=O)[nH]1
ratio change, negative = inhibition [1]: inactive

CCOC(=O)CC1COc2ccccc2N1C(=O)c1ccc(F)cc1 (stereo unspecified)
ratio change, negative = inhibition [1]: inconclusive: 4.21% [at 46 µM]

CCOC(=O)c1sc(=S)n(-c2cc(F)ccc2F)c1N
ratio change, negative = inhibition [1]: inconclusive: 0.372% [at 0.0737 µM]

Cc1nc2ccn(Cc3ccco3)c(=O)c2cc1C(=O)Nc1ccc(F)cc1
ratio change, negative = inhibition [1]: inconclusive: -27.4% [at 46 µM]

Cc1ccc(N2C(=O)CS(=O)(=O)C23C(=O)N(Cc2ccccc2C)c2ccccc23)cc1Cl (stereo unspecified)
ratio change, negative = inhibition [1]: inactive

Cc1ccc(C)c(S(=O)(=O)NCc2ccc(C(=O)N3CCCCCC3)cc2)c1
Potency [1]: inconclusive: 35.5 µM [falling, single point]

CCN(CC)CCN1C(=O)C(O)=C(C(=O)c2cc3ccccc3o2)C1c1cccnc1 (stereo unspecified)
ratio change, negative = inhibition [1]: inactive

Cc1csc(NC(=O)c2cccc(S(=O)(=O)N3CCN(C)CC3)c2)n1
ratio change, negative = inhibition [1]: inconclusive: -11.8% [at 46 µM]

Cc1nn(C)c2c1c(C(F)(F)F)cc(=O)n2C(C)C(=O)NCCC(C)C (stereo unspecified)
ratio change, negative = inhibition [1]: inactive

CCOC(=O)c1cc(NC(=O)NCc2ccco2)c(C)nc1C
ratio change, negative = inhibition [1]: inconclusive: 9.64%

O=C(Nc1ccc([N+](=O)[O-])cc1)C1(c2ccccc2)CCOCC1
ratio change, negative = inhibition [1]: inconclusive: 11.8%

Cc1cc(C)c2nc(C(F)(F)F)c(C#N)c(N)c2c1
ratio change, negative = inhibition [1]: inconclusive: 22.2%

CCCCN(C)CCCNC(=O)/C=C1\Sc2ccccc2NC1=O
ratio change, negative = inhibition [1]: inconclusive: -35.7% [at 46 µM]

Cc1cc(S(=O)(=O)N2CCN(Cc3ccc4c(c3)OCO4)CC2)cc(C)c1N1CCCC1=O
Potency [1]: inconclusive: 10 µM [fluorescent, partial curve]

O=C1CC(=O)CC(c2ccccc2)C1
ratio change, negative = inhibition [1]: inactive

O=C(Cn1nc(-c2ccccc2)c2cnc3ccc(F)cc3c21)NC1CCCC1
ratio change, negative = inhibition [1]: inconclusive: 13.4% [at 46 µM]

CNC(=O)C1CC(=O)N(Cc2ccc3c(c2)OCO3)C(=Nc2ccc(OC)cc2)S1 (stereo unspecified)
ratio change, negative = inhibition [1]: inconclusive: 3.37%

O=C(Nc1cc(C(=O)Nc2ccc(S(=O)(=O)O)cc2S(=O)(=O)O)cc(C(=O)Nc2ccc(S(=O)(=O)O)cc2S(=O)(=O)O)c1)Nc1cc(C(=O)Nc2ccc(S(=O)(=O)O)cc2S(=O)(=O)O)cc(C(=O)Nc2ccc(S(=O)(=O)O)cc2S(=O)(=O)O)c1
Potency [1]: inconclusive: 12.6 µM [inhibitor, partial curve, poor fit]

CCOC(=O)c1c(NC(=O)CSc2nnc(CNc3ccc(Cl)cc3)o2)sc(C)c1C
ratio change, negative = inhibition [1]: inactive

COCCCn1c(Cc2csc(Nc3ccccc3)n2)nnc1SCC(N)=O
ratio change, negative = inhibition [1]: inactive

Cc1cc(N/N=C/c2ccccc2O)nc(-c2ccccc2O)n1
Potency [1]: inconclusive: 25.1 µM [inhibitor, partial curve, poor fit]

CC(C)(Oc1ccc(Cl)cc1)C(=O)NCc1ccco1
ratio change, negative = inhibition [1]: inactive

O=C(COc1ccc([N+](=O)[O-])cc1)N1CCC(c2nc3ccccc3s2)CC1
ratio change, negative = inhibition [1]: inconclusive: -0.18% [at 46 µM]

CCOc1ccc(NC(=S)NNc2ccnc3cc(Cl)ccc23)cc1
ratio change, negative = inhibition [1]: inconclusive: -5.48% [at 46 µM]

CC(C)(CC(=O)OCC(=O)Nc1ccccc1F)CC1=NS(=O)(=O)c2ccccc2N1
ratio change, negative = inhibition [1]: inconclusive: -4.18% [at 46 µM]

CCc1cccc(Nc2c([N+](=O)[O-])cc(C(=O)N3CC(=O)Nc4ccccc43)cc2[N+](=O)[O-])c1
ratio change, negative = inhibition [1]: inactive

CN1C(=O)CC(N2CCC(C(N)=O)(N3CCCCC3)CC2)C1=O (stereo unspecified)
ratio change, negative = inhibition [1]: inactive

Cc1cc(/C=C2\Cc3ccccc3C2=O)c(C)n1-c1ccccc1
ratio change, negative = inhibition [1]: inconclusive: -34.7%

CCOC(=O)c1c(N)sc2c1CCC(C)C2 (stereo unspecified)
ratio change, negative = inhibition [1]: inconclusive: 13%

COc1ccccc1NC(=O)Nc1ccc(Cl)c(S(=O)(=O)Nc2ccccc2OC)c1
Potency [1]: inconclusive: 35.5 µM [falling, partial curve]

COc1ccc(C2NC(=S)NC(C)=C2C(=O)Nc2ccccn2)cc1 (stereo unspecified)
ratio change, negative = inhibition [1]: inactive

CCOC(=O)c1cccc(NC(=O)CSc2nnc(C3CCCCC3)n2CC)c1
ratio change, negative = inhibition [1]: inconclusive: 15.2%

CCOC(=O)CSC1=C(C#N)C(c2ccc(C)cc2)C2=C(CCCC2=O)N1 (stereo unspecified)
ratio change, negative = inhibition [1]: inactive

CSc1ccc2c(c1)N(CCC1CCCCN1C)c1ccccc1S2 (stereo unspecified)
ratio change, negative = inhibition (at 46 µM (top of the series)): inconclusive: 172% | ratio change, negative = inhibition (at 46.1 µM (top of the series)): inconclusive: -24.3%

O=C(Cn1c(-c2cccs2)cc2cc(F)ccc21)N1CCN(c2cccc(Cl)c2)CC1
ratio change, negative = inhibition [1]: inconclusive: -14.7% [at 46 µM]

CCC1CN(C(=O)Nc2cccc(OC)c2)c2ccccc2O1 (stereo unspecified)
ratio change, negative = inhibition [1]: inconclusive: -27.9% [at 46 µM]

O=C(C1CCCN1C(=O)c1cccs1)N1CCN(Cc2ccc3c(c2)OCO3)CC1 (stereo unspecified)
ratio change, negative = inhibition [1]: inconclusive: 15.5%

COc1cccc(NC(=O)c2ncc(Cl)c(Cl)c2Cl)c1
ratio change, negative = inhibition [1]: inconclusive: -39.5% [at 46 µM]

COc1ccccc1N1CCN(C(c2cccs2)C(C)NC(=O)c2cccs2)CC1 (stereo unspecified)
Potency [1]: inconclusive: 35.5 µM [falling, single point]

COc1ccc(OC)c(NC(=O)c2c(NCc3ccc(OC)c(OC)c3)sc3c2CCC3)c1
Potency [1]: inconclusive: 25.1 µM [inhibitor, partial curve]

Cc1cccc(OCCN2CSC(=S)N(C)C2)c1
ratio change, negative = inhibition [1]: inconclusive: -33.6%

CC1=C(/C=C/C(C)=C/C=C/C(C)=C\C(=O)O)C(C)(C)CCC1
ratio change, negative = inhibition [1]: inconclusive: -34.3%

CC/C(=C(/CC)c1ccc(O)cc1)c1ccc(O)cc1
ratio change, negative = inhibition [1]: inconclusive: -30.5% [at 46 µM]

COc1ccc2nc3sc(C(=O)NCc4cccs4)c(N)c3cc2c1
Potency [1]: inconclusive: 22.4 µM [rising, single point]

Cc1nn(-c2ccccc2)c(Cl)c1C(=O)NC1CCCCC1
ratio change, negative = inhibition [1]: inactive

O=C1C(Cl)=C(NCCCO)C(=O)c2ccccc21
Potency [1]: inconclusive: 35.5 µM [falling, single point]

Cc1noc(C)c1COC(=O)c1ccc(N(C)C)cc1
ratio change, negative = inhibition [1]: inconclusive: -19.6% [at 46 µM]

Cc1cc2n(n1)CCCN2C(=O)Nc1ccc(F)c(Cl)c1
ratio change, negative = inhibition [1]: inactive

COc1cccc(NC(=O)c2ccc(CN3CCN(c4ccccc4)CC3)cc2)c1
ratio change, negative = inhibition [1]: inconclusive: -4.17%

COc1ccc(C(=O)CSc2cc(C)nc3nc(C)nn23)cc1OC
ratio change, negative = inhibition [1]: inactive

CCOC(=O)c1c(C)[nH]c(C(C)=O)c1C
ratio change, negative = inhibition [1]: inactive

COc1ccc(CNC(=O)c2cnc(N3CCCC3)nc2C)c(OC)c1
ratio change, negative = inhibition [1]: inactive

CCn1c(=O)cc(SCC(=O)NCCCN2CCC(C)CC2)c2ccccc21
Potency [1]: inconclusive: 20 µM [inhibitor, single point]

CCOC(=O)c1cc(-c2ccccc2)n(CCC(=O)NCCc2ccccc2)c1C
ratio change, negative = inhibition [1]: inactive

CCN(C(=O)CSc1nc2ccccc2n1CC(=O)N(C)C1CCCCC1)c1ccccc1
ratio change, negative = inhibition [1]: inactive

Cc1cccc(-c2noc(CN(C(=O)/C=C/c3ccccc3Cl)C(C)C)n2)c1
ratio change, negative = inhibition [1]: inconclusive: -48.7%

Cc1ccc(C(=O)NC(NCc2ccccc2)C(Cl)(Cl)Cl)cc1 (stereo unspecified)
ratio change, negative = inhibition [1]: inconclusive: 9.99%

COc1ccc(Cc2nnc(SCC(=O)NCCc3ccccc3)o2)cc1
ratio change, negative = inhibition [1]: inactive

C=CCNC(=S)Nc1cccc2ccccc12
ratio change, negative = inhibition [1]: inactive

CCC(Oc1ccccc1)C(=O)NC1CCSC1=O (stereo unspecified)
ratio change, negative = inhibition [1]: inconclusive: 5.82% [at 46 µM]

CCOC(=O)c1cc(-c2ccccc2)n(CCC(=O)Nc2cc(OCC)ccc2OCC)c1C
ratio change, negative = inhibition [1]: inconclusive: 16.2% [at 46 µM]

Cc1ccc(S(=O)(=O)N2CCN(c3nc4ccccc4nc3-n3nc(C)cc3C)CC2)cc1
ratio change, negative = inhibition [1]: inconclusive: -6.71%

COc1cccc(C(=O)Oc2ccccc2/C=C\C(=O)c2cc3ccccc3o2)c1
Potency [1]: inconclusive: 35.5 µM [cytotoxic, single point]

CN(Cc1ccccc1NCC(=O)Nc1ccccc1C#N)C1CCCCC1
ratio change, negative = inhibition [1]: inconclusive: -27% [at 46 µM]

CC(C)CC(=O)Nc1ccc(C(=O)COc2ccc(-c3nnco3)cc2)cc1
ratio change, negative = inhibition [1]: inconclusive: 8.4%

Cc1ccc(NC(=O)c2cc(S(=O)(=O)NCCC3=CCCCC3)ccc2F)cc1C
ratio change, negative = inhibition [1]: inconclusive: -25.6% [at 46 µM]

O=C(NCC1CCCO1)c1ccccn1 (stereo unspecified)
ratio change, negative = inhibition [1]: inactive

O=C(CSc1nnc2c(n1)[nH]c1ccccc12)OCc1ccccc1
ratio change, negative = inhibition [1]: inactive

CCOc1cc(/C=N/NC(=O)c2nn(C)cc2Br)ccc1OCc1ccccc1
ratio change, negative = inhibition [1]: inconclusive: 2.88%

CCN(CC)S(=O)(=O)c1ccc(N2CCOCC2)c(NC(=O)c2ccc(F)cc2)c1
ratio change, negative = inhibition [1]: inactive

COc1ccc(OC)c(CNC(=O)c2cc3ccc4cccnc4c3[nH]2)c1
ratio change, negative = inhibition [1]: inconclusive: 22.1% [at 46 µM]

COC(=O)C[C@H]1c2ccccc2C2=C(C[C@@H](C)[C@H]3C(=O)N(c4ccccc4)C(=O)[C@@H]23)N1C(=O)OC
ratio change, negative = inhibition [1]: inactive: 3.11% [at 9.22 µM] and inactive: -3.92% [at 9.22 µM]
